PubChem BioAssay AID1159578, Peter MacCallum Cancer Centre | 2015
The whole screen tested about 18,000 reagents; shown is a random part of them. In the full data, about 1,030 (5.7%) got an active call. 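Inactive calls also include pools with fewer than 3300 nuclei, whose migration was not assessed.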 Raw values are not corrected between plates. The numbers tell different reagents against one gene apart.

Screen: 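siRNA pools altering how lymphatic endothelial cells close a scratch wound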 (primary screen)
Cells: human lymphatic endothelial cells
Reagents: siRNA pool against human genes, 40 nM
Timing: 48 h after transfection
Detection: 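Cells stained with dye and imaged after a scratch; covered wound area and nuclei counted, duplicates averaged, migration set against mock wells and turned into a robust z-score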
Scale: migration robust z-score: higher = faster migration into the scratch; migration relative to mock: higher = more scratch area covered than mock; nuclei per well: higher = more cells in the well
Active means: 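Pools averaging fewer than 3300 nuclei are never called; remaining pools count as changed when migration robust z lies outside -2 to 2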
Meaning of the calls: active = migration changed; inactive = no migration change, or too few cells

The opening 6 records as a preview:
migration robust z-score	migration class with cell-count check	migration relative to mock	nuclei per well, duplicate mean	outcome	target gene	reagent no.
2.69	migration z above 2; enough cells	1.58	5472	active	PABPC1L2B (poly(A) binding protein cytoplasmic 1 like 2B)	1
-0.3	migration z between -2 and 2; enough cells	0.8	5610	inactive	ZFP1 (ZFP1 zinc finger protein)	1
0.32	migration z between -2 and 2; enough cells	0.97	6714	inactive	KLC3 (kinesin light chain 3)	1
1.01	migration z between -2 and 2; enough cells	1.16	6362	inactive	SPZ1 (spermatogenic leucine zipper 1)	1
-0.55	migration z between -2 and 2; enough cells	0.74	6067	inactive	WNT5B (Wnt family member 5B)	1
-1.42	migration z between -2 and 2; enough cells	0.52	5120	inactive	TMEM220 (transmembrane protein 220)	1

The list itself, repeating the preview:
migration robust z-score	migration class with cell-count check	migration relative to mock	nuclei per well, duplicate mean	outcome	target gene	reagent no.
2.69	migration z above 2; enough cells	1.58	5472	active	PABPC1L2B (poly(A) binding protein cytoplasmic 1 like 2B)	1
-0.3	migration z between -2 and 2; enough cells	0.8	5610	inactive	ZFP1 (ZFP1 zinc finger protein)	1
0.32	migration z between -2 and 2; enough cells	0.97	6714	inactive	KLC3 (kinesin light chain 3)	1
1.01	migration z between -2 and 2; enough cells	1.16	6362	inactive	SPZ1 (spermatogenic leucine zipper 1)	1
-0.55	migration z between -2 and 2; enough cells	0.74	6067	inactive	WNT5B (Wnt family member 5B)	1
-1.42	migration z between -2 and 2; enough cells	0.52	5120	inactive	TMEM220 (transmembrane protein 220)	1
0.38	migration z between -2 and 2; enough cells	0.98	5318	inactive	ZBED8 (zinc finger BED-type containing 8)	1
0.05	migration z between -2 and 2; enough cells	0.82	5553	inactive	ATP2A2	1
-5.94	under 3300 nuclei; migration not judged	-0.34	3230	inactive	RGR (retinal G protein coupled receptor)	1
-0.46	migration z between -2 and 2; enough cells	0.76	6559	inactive	POTEE (POTE ankyrin domain family member E)	1
-1.84	migration z between -2 and 2; enough cells	0.41	3900	inactive	PRM2 (protamine 2)	1
0.29	migration z between -2 and 2; enough cells	0.86	4836	inactive	NF1 (neurofibromin 1)	1
-0.9	migration z between -2 and 2; enough cells	0.66	5021	inactive	RHBDD3 (rhomboid domain containing 3)	1
0.73	migration z between -2 and 2; enough cells	0.94	6702	inactive	TRIM13 (tripartite motif containing 13)	1
-0.44	migration z between -2 and 2; enough cells	0.72	4630	inactive	ABCC9 (ATP binding cassette subfamily C member 9)	1
0.49	migration z between -2 and 2; enough cells	0.9	6399	inactive	H1-0 (H1.0 linker histone)	1
0.83	migration z between -2 and 2; enough cells	0.96	6342	inactive	UNK (unk zinc finger)	1
-0.34	migration z between -2 and 2; enough cells	0.74	5756	inactive	INPPL1 (inositol polyphosphate phosphatase like 1)	1
0.16	migration z between -2 and 2; enough cells	0.84	5362	inactive	ADRB2 (adrenoceptor beta 2)	1
0.32	migration z between -2 and 2; enough cells	0.86	6327	inactive	SLC38A2	1
-2.18	migration z below -2; enough cells	0.32	6320	active	SUN3 (Sad1 and UNC84 domain containing 3)	1
-0.44	migration z between -2 and 2; enough cells	0.77	6004	inactive	ITPRID1 (ITPR interacting domain containing 1)	1
0.13	migration z between -2 and 2; enough cells	0.92	4603	inactive	KRT36 (keratin 36)	1
-0.46	migration z between -2 and 2; enough cells	0.72	4222	inactive	PAIP2 (poly(A) binding protein interacting protein 2)	1
-0.1	migration z between -2 and 2; enough cells	0.78	5468	inactive	ZNRF3 (zinc and ring finger 3)	1
-0.61	migration z between -2 and 2; enough cells	0.74	4525	inactive	MYH7B (myosin heavy chain 7B)	1
0.03	migration z between -2 and 2; enough cells	0.9	5756	inactive	MSTO1 (misato mitochondrial distribution and morphology regulator 1)	1
-0.65	migration z between -2 and 2; enough cells	0.68	6104	inactive	CCR3 (C-C motif chemokine receptor 3)	1
0.15	migration z between -2 and 2; enough cells	0.92	5120	inactive	LAT (linker for activation of T cells)	1
-1.51	migration z between -2 and 2; enough cells	0.5	4070	inactive	IK (IK cytokine)	1
-1.19	migration z between -2 and 2; enough cells	0.58	5002	inactive	SSBP4 (single stranded DNA binding protein 4)	1
-0.48	migration z between -2 and 2; enough cells	0.76	4270	inactive	KRT6A (keratin 6A)	1
0.39	migration z between -2 and 2; enough cells	0.88	6054	inactive	KCTD6 (potassium channel tetramerization domain containing 6)	1
0.86	migration z between -2 and 2; enough cells	0.97	5753	inactive	NPTN (neuroplastin)	1
-2.23	migration z below -2; enough cells	0.3	6194	active	BRICD5 (BRICHOS domain containing 5)	1
0.21	migration z between -2 and 2; enough cells	0.84	5416	inactive	EIF3H (eukaryotic translation initiation factor 3 subunit H)	1
0.77	migration z between -2 and 2; enough cells	1.07	5639	inactive	ZFAT (zinc finger and AT-hook domain containing)	1
0.71	migration z between -2 and 2; enough cells	1.07	5799	inactive	TECRL (trans-2,3-enoyl-CoA reductase like)	1
0.31	migration z between -2 and 2; enough cells	0.86	4976	inactive	CTF1 (cardiotrophin 1)	1
1.38	migration z between -2 and 2; enough cells	1.07	5532	inactive	MGRN1 (mahogunin ring finger 1)	1
-1.07	migration z between -2 and 2; enough cells	0.61	6105	inactive	CASZ1 (castor zinc finger 1)	1
0.86	migration z between -2 and 2; enough cells	1.11	4747	inactive	CDC42EP5 (CDC42 effector protein 5)	1
-0.69	migration z between -2 and 2; enough cells	0.7	6365	inactive	SMARCA2	1
-0.26	migration z between -2 and 2; enough cells	0.82	5887	inactive	TMEM64 (transmembrane protein 64)	1
-0.99	migration z between -2 and 2; enough cells	0.63	5229	inactive	ATP6AP2 (ATPase H+ transporting accessory protein 2)	1
0.86	migration z between -2 and 2; enough cells	0.97	6958	inactive	ATP6V1E1 (ATPase H+ transporting V1 subunit E1)	1
-0.78	migration z between -2 and 2; enough cells	0.68	6429	inactive	ZG16B (zymogen granule protein 16B)	1
1.31	migration z between -2 and 2; enough cells	1.23	6687	inactive	ACCSL	1
-1.2	migration z between -2 and 2; enough cells	0.58	6122	inactive	CFAP46 (cilia and flagella associated protein 46)	1
-0.4	migration z between -2 and 2; enough cells	0.78	5832	inactive	CFAP46 (cilia and flagella associated protein 46)	2
0.34	migration z between -2 and 2; enough cells	0.87	6334	inactive	PLCZ1 (phospholipase C zeta 1)	1
0.68	migration z between -2 and 2; enough cells	0.94	5400	inactive	GPT2 (glutamic--pyruvic transaminase 2)	1
0.26	migration z between -2 and 2; enough cells	0.86	6794	inactive	IGF2R (insulin like growth factor 2 receptor)	1
0.18	migration z between -2 and 2; enough cells	0.84	6701	inactive	IL10RB (interleukin 10 receptor subunit beta)	1
-1.14	migration z between -2 and 2; enough cells	0.58	3484	inactive	TCF7L2 (transcription factor 7 like 2)	1
-0.39	migration z between -2 and 2; enough cells	0.73	5661	inactive	TFAM (transcription factor A, mitochondrial)	1
0.93	migration z between -2 and 2; enough cells	0.98	5582	inactive	UBE2E2 (ubiquitin conjugating enzyme E2 E2)	1
